Data as given in PubChem BioAssay AID1259424 (University of Nebraska Medical Center, 2018)

- Screen: 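Seek colon cancer survival genes behaving like KSR1, using a six-gene signature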 (primary screen)
- Cell system: human HCT116 colon cancer cells
- Knock-down reagent: siRNA pool against human genes, 50 nM
- Detection: 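Log2 levels of six mRNAs (branched-DNA multiplex), adjusted by two reference genes and the non-targeting median, then scored against the average KSR1 knockdown pattern as Pearson r and euclidean distance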
- Direction: mean correlation with KSR1 profile and KSR1 correlation: higher = expression change more like KSR1 knockdown; mean distance from KSR1 profile: higher = expression change less like KSR1 knockdown
This is one part, drawn at random, of about 14,000 deposited reagents. 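Higher correlation or smaller distance means closer resemblance to KSR1 loss; control wells, including KSR1 knockdowns, recur on many plates.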 A reagent listed more than once was tested more than once; the source does not tell the runs apart. Not given: the time to read-out.

| target | mean correlation with KSR1 profile | mean distance from KSR1 profile | KSR1 correlation, replicate 1 | KSR1 correlation, replicate 2 | KSR1 correlation, replicate 3 |
| --- | --- | --- | --- | --- | --- |
| ATF7IP (activating transcription factor 7 interacting protein) | 0.434 | 2.16 | 0.641 | 0.409 | 0.278 |
| F13A1 (coagulation factor XIII A chain) | -0.116 | 2.09 | -0.156 | -0.179 | -0.484 |
| ZNF254 (zinc finger protein 254) | 0.273 | 1.63 | 0.309 | 0.32 | 0.476 |
| CLCN5 (Cl-/H+ antiporter 5) | -0.268 | 1.93 | -0.313 | -0.669 | -0.125 |
| PHKG1 (phosphorylase kinase catalytic subunit gamma 1) | -0.077 | 2.27 | 0.0884 | 0.114 | -0.113 |
| SLIRP (SRA stem-loop interacting RNA binding protein) | 0.383 | 1.84 | 0.317 | 0.204 | 0.446 |
| KIAA1614 | -0.284 | 1.28 | -0.241 | -0.0359 | -0.462 |
| APOBEC3F (apolipoprotein B mRNA editing enzyme catalytic subunit 3F) | -0.655 | 1.96 | -0.89 | 0.0776 | -0.428 |
| GPR155 (G protein-coupled receptor 155) | 0.565 | 2.27 | 0.458 | 0.716 | 0.4 |
| MEPCE (methylphosphate capping enzyme) | -0.385 | 5.84 | -0.261 | -0.394 | -0.38 |
| TP53I3 (tumor protein p53 inducible protein 3) | -0.113 | 3.56 | -0.167 | -0.284 | 0.333 |
| IL24 (interleukin 24) | -0.169 | 1.44 | -0.114 | -0.179 | -0.107 |
| FAM20B (FAM20B glycosaminoglycan xylosylkinase) | 0.0137 | 2.43 | 0.201 | -0.232 | 0.106 |
| PDAP1 (PDGFA associated protein 1) | 0.096 | 4.06 | -0.127 | -0.276 | 0.617 |
| RANGAP1 (Ran GTPase activating protein 1) | 0.252 | 1.14 | 0.249 | 0.205 | 0.313 |
| RWDD3 (RWD domain containing 3) | -0.187 | 1.44 | -0.0314 | -0.262 | -0.368 |
| COTL1 (coactosin like F-actin binding protein 1) | -0.495 | 4.68 | -0.535 | -0.472 | -0.527 |
| TTBK2 (tau tubulin kinase 2) | -0.176 | 3.31 | 0.0547 | -0.0455 | -0.361 |
| MAP2K4 (mitogen-activated protein kinase kinase 4) | 0.659 | 1.21 | 0.763 | 0.71 | 0.442 |
| NBPF1 (NBPF member 1) | -0.0349 | 3.81 | -0.15 | -0.112 | -0.071 |
| SUPT5H (SPT5 homolog, DSIF elongation factor subunit) | -0.00953 | 2.07 | -0.0182 | -0.125 | 0.488 |
| ARSB (arylsulfatase B) | 0.0991 | 1.86 | -0.26 | 0.354 | -0.0218 |
| GPR20 (G protein-coupled receptor 20) | 0.612 | 2.04 | 0.592 | 0.635 | 0.463 |
| REXO5 (RNA exonuclease 5) | 0.299 | 2.01 | 0.174 | 0.314 | 0.284 |
| ALDOB (aldolase, fructose-bisphosphate B) | 0.45 | 1.61 | 0.287 | 0.251 | 0.537 |
| CXCL8 (C-X-C motif chemokine ligand 8) | 0.865 | 1.42 | 0.898 | 0.789 | 0.847 |
| ZHX1 (zinc fingers and homeoboxes 1) | -0.361 | 3.74 | -0.0587 | 0.0861 | -0.0672 |
| ALDOC (aldolase, fructose-bisphosphate C) | -0.271 | 3.96 | -0.287 | -0.208 | -0.139 |
| DBNL (drebrin like) | 0.284 | 2.15 | 0.255 | 0.336 | 0.404 |
| DBNL (drebrin like) | 0.0815 | 2.34 | 0.322 | -0.273 | 0.435 |
| TIGD6 (tigger transposable element derived 6) | -0.241 | 2.8 | -0.31 | -0.372 | -0.336 |
| PUS1 (pseudouridine synthase 1) | 0.54 | 1.38 | 0.0402 | 0.556 | 0.451 |
| PML (PML nuclear body scaffold) | 0.176 | 1.86 | -0.133 | 0.329 | 0.15 |
| TAS2R19 (taste 2 receptor member 19) | 0.412 | 1.92 | 0.384 | 0.578 | 0.367 |

In a second layout: 5 of the entries above
TTBK2 (tau tubulin kinase 2)
- mean correlation with KSR1 profile: -0.176
- mean distance from KSR1 profile: 3.31
- KSR1 correlation, replicate 1: 0.0547
- KSR1 correlation, replicate 2: -0.0455
- KSR1 correlation, replicate 3: -0.361

MAP2K4 (mitogen-activated protein kinase kinase 4)
- mean correlation with KSR1 profile: 0.659
- mean distance from KSR1 profile: 1.21
- KSR1 correlation, replicate 1: 0.763
- KSR1 correlation, replicate 2: 0.71
- KSR1 correlation, replicate 3: 0.442

NBPF1 (NBPF member 1)
- mean correlation with KSR1 profile: -0.0349
- mean distance from KSR1 profile: 3.81
- KSR1 correlation, replicate 1: -0.15
- KSR1 correlation, replicate 2: -0.112
- KSR1 correlation, replicate 3: -0.071

SUPT5H (SPT5 homolog, DSIF elongation factor subunit)
- mean correlation with KSR1 profile: -0.00953
- mean distance from KSR1 profile: 2.07
- KSR1 correlation, replicate 1: -0.0182
- KSR1 correlation, replicate 2: -0.125
- KSR1 correlation, replicate 3: 0.488

ARSB (arylsulfatase B)
- mean correlation with KSR1 profile: 0.0991
- mean distance from KSR1 profile: 1.86
- KSR1 correlation, replicate 1: -0.26
- KSR1 correlation, replicate 2: 0.354
- KSR1 correlation, replicate 3: -0.0218
